# Test results taken from the supplement of paper PMC12823440, “Inhibitors supercharge kinase turnover through native proteolytic circuits” (Nature, 2025).
# Amino acid sequences for entries named in this document (tags omitted). A change or cut given only in a name is not applied to a line headed by its entry.
# UniProt Q13131: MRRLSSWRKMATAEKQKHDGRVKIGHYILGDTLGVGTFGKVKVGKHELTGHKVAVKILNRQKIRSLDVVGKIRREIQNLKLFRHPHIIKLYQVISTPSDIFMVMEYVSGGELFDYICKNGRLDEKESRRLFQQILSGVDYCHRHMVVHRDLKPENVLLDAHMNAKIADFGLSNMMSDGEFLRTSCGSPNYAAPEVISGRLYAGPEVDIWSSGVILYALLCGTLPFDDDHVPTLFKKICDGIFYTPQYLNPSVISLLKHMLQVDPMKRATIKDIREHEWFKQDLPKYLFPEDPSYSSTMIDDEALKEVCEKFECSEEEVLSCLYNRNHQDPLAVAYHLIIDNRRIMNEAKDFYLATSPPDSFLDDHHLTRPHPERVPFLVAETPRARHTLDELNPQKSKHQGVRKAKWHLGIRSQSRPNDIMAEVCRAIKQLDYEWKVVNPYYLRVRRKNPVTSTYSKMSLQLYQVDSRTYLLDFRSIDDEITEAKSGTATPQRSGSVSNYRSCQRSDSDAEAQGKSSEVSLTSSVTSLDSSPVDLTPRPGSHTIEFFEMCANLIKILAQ
# The other results are listed elsewhere or left out. Hit calls seldom repeat between salt and free forms of one compound.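 Kinases, fused to nanoluciferase, were expressed in K562 cells; luminescence was measured every 4 h from 2 to 18 h as percent of control (DMSO = 100%, positive control = 0%). A time point is decreased if signal falls significantly (2 sigma). Hits were called by the authors by a rule that is not shown; the count of time points alone does not decide it.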
# Molecular target: PRKAA1 (UniProt Q13131)
# Assay: number of time points (of 5) at which kinase-Nluc abundance scored as decreased, DMSO-normalised (count); higher = more persistent destabilization
# Details: K562; 2-18 h
row,SMILES,number of time points
1,COC(=O)Nc1ccc(-c2nc(N3CCOCC3)c3cnn(C4CCN(Cc5cccnc5)CC4)c3n2)cc1 (10 µM),0
2,N[C@@H]1CCCN(c2c(/C=C3\SC(=O)NC3=O)cccc2-c2ccccc2)C1 (10 µM),0
3,Nc1nc(N)c2nc(-c3cccc(O)c3)c(-c3cccc(O)c3)nc2n1 (10 µM),0
4,Cn1ncc(NC(=O)c2nc(-c3c(F)cccc3F)sc2N)c1N1CC[C@@H](N)[C@H](F)CC1 (10 µM),0
5,C=C1C(=O)[C@@]23[C@H](O)C[C@@H]4C(C)(C)C(=O)CC[C@@]4(C)[C@@H]2CC[C@@H]1[C@H]3O [Glaucocalyxin A] (2.5 µM),0
6,O=C(NCCO)c1cc(C(=O)NCCO)cc(C(=O)NCCO)c1 (10 µM),0
7,CCC(=O)Nc1cccc(Oc2nc(Nc3ccc(N4CCN(C)CC4)cc3OC)ncc2Cl)c1 (10 µM),0
8,Cc1nn(C)cc1-c1nc2c(N3CCN(Cc4ccc(Cl)cc4)CC3)c(Cl)cnc2[nH]1 (10 µM),0
9,CC(C)Oc1ccc(F)c(-c2cnc(N)c(C(=O)Nc3cnccc3N3CCC[C@@H](C(=O)O)C3)n2)c1 (2 µM),0
10,Nc1ncc(C(=O)NC2CN(C(=O)C3CC3)C2)c2ccc(-c3cccc(F)c3)nc12 (2 µM),0
11,O=C(ON=C1c2ccccc2-c2nc3ccccc3nc21)c1ccco1 (2.5 µM),0
12,CC(C)=CC[C@@H](O)C1=CC(=O)c2c(O)ccc(O)c2C1=O [Shikonin] (10 µM),0
13,COC(=O)Nc1ccc(-c2nc(N3CCOCC3)c3cnn(C4CCN(C(=O)OC)CC4)c3n2)cc1 (10 µM),0
14,CNC(=O)c1ccc2c(c1)ncn2-c1ccc(CC(=O)OC(C)(C)C)cc1 (10 µM),0
15,O=C1CC[C@H](NC(=O)Cc2ccccc2)C(=O)N1 [Antineoplaston A10] (10 µM),0
16,COCCOCCc1c(C)c2cc(OC)c(O)c(C=O)c2oc1=O (10 µM),0
17,Cc1ccc(C(=O)NC2CC2)cc1-n1ncc(C(=O)c2cccc(C#N)c2)c1N [Acumapimod] (10 µM),0
18,O=C(NCCN1CCOCC1)Nc1nc2ccc(Sc3nnc4ccc(-c5ccc(F)cc5)nn34)cc2s1 (10 µM),0
19,COc1cc(F)ccc1-c1ncnc(Nc2cccc(C[S@](C)(=N)=O)c2)n1 [Atuveciclib] (2.5 µM),2
20,CCn1c(-c2nonc2N)nc2c(C#CC(C)(C)O)ncc(OC[C@H]3CCCNC3)c21 (10 µM),0
21,O=c1[nH]ccc2nc(-c3ccc(CN4CCC(c5nc(-c6ccccn6)n[nH]5)CC4)cc3)c(-c3ccccc3)cc12 (10 µM),0
22,COCCOc1ccc2c(c1)ncn2-c1ccc2cccc(N3CCC(N)CC3)c2n1 (10 µM),2
23,CN1CCC(CNc2ccc3ncc(-c4cccc(OC(F)(F)F)c4)n3n2)CC1 (2.5 µM),0
24,Cc1cc(C(=O)NC(C)(C)C)cc(C#Cc2ccc3c4c(oc3c2)C(C)(C)c2cc(NS(C)(=O)=O)ccc2C4=O)n1 (10 µM),0
25,CC(O)(C#Cc1ccc2c(c1)N(c1nc(N)ncc1Cl)CC2)c1nccs1 (configuration not stated) (2.5 µM),0
26,COc1cc(-c2cc(-c3ccc(N4CCNCC4)cc3)cnc2C)cc(OC)c1OC (10 µM),0
27,Cn1c(CNc2cccc(C(=O)NCc3ccccc3C(F)(F)F)c2)nnc1-c1ccncc1 (10 µM),0

# Structures listed so far with a CF3 group:
row,SMILES,number of time points
23,CN1CCC(CNc2ccc3ncc(-c4cccc(OC(F)(F)F)c4)n3n2)CC1 (2.5 µM),0
27,Cn1c(CNc2cccc(C(=O)NCc3ccccc3C(F)(F)F)c2)nnc1-c1ccncc1 (10 µM),0
